Test results taken from US20260209300A1.
These are yes or no findings as the source states them, for the method shown. Some results given as binding are weak or reduced against the parent protein; the word gives no strength.

Protein sequences, listed by entry. Tags and fused reporters are not part of them. Residues count along the entry.
UniProt P02768, residues 25-609: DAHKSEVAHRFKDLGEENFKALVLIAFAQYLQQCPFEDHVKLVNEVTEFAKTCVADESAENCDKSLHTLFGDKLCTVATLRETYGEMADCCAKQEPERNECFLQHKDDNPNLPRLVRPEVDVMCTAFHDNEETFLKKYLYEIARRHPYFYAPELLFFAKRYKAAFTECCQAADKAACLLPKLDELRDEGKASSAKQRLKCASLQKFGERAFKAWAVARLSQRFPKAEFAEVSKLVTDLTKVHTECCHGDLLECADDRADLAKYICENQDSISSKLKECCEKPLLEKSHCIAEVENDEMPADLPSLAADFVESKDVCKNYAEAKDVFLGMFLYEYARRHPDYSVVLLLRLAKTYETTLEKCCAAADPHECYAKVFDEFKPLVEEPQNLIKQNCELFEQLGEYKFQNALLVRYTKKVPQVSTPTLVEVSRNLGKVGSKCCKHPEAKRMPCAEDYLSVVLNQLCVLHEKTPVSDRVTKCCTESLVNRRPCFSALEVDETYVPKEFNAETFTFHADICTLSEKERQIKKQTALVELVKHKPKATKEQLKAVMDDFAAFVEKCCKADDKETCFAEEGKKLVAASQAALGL
UniProt P07724, residues 25-608: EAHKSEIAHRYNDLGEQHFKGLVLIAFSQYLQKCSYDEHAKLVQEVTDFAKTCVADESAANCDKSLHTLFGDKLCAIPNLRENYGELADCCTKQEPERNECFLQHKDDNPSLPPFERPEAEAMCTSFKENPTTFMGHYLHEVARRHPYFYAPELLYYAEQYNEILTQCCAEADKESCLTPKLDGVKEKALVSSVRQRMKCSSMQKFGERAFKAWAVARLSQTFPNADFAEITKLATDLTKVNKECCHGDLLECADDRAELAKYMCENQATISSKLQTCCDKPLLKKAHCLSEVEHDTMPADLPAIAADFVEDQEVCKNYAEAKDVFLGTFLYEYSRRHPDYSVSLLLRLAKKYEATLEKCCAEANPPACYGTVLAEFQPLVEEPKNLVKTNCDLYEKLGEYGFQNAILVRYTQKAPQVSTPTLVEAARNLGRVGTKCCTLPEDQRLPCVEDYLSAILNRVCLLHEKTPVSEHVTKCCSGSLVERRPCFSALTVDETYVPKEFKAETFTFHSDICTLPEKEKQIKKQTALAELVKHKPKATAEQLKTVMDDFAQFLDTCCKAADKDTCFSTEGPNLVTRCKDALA

Assays:
[1] = target: human serum albumin (human) (UniProt P02768); assay: ELISA
[2] = target: mouse serum albumin (mouse) (UniProt P07724); assay: ELISA

B1: SAFA-IL-2m2 (APB-R4) (protein)
heavy: QVQLVQSGGGPVKPGGSLRLSCAASGFMFRAYSMNWVRQAPGKGLEWVSSISSSGRYIHYADSVKGRFTISRDNAKNSLYLQMNSLRAEDTAVYYCARETVMAGKALDYWGQGTLVTVSSASTKGPSVFPLAPSSKSTSEGTAALGCLVKDYFPEPVTVSWNSGALTSGVHTFPAVLQSSGLYSLSSVVTVPSSSLGTQTYICNVNHKPSNTKVDKKVEPKSSGGGGSGGGGSAPTSSSTKKTQLQLEHLLLDLQMILNGINNYKNPKLTRMLTFKFYMPKKATELKHLQCLEEELKPLEEVLNLAQSKNFHLRPRDLISRINDIVLELKGSETTFSCEYADETATIVEFLNRWITFAQSIISTLT
light: DIVLTQSPGTLSLSPGETATLSCRASQSVGSNLAWYQQKPGQAPRLLIYGASTGATGVPARFSGSRSGTDFTLTITSLQPEDFATYYCQQYYSFLAKTFGQGTQLEIKRTVAAPSVFIFPPSDEQLKSGTASVVCLLNNFYPREAKVQWKVDNALQSGNSQESVTEQDSKDSTYSLSNTLTLSKADYEKHKVYACEVTHQGLSSPVTKSFNRGES
[1]
  binding: binds
[2]
  binding: binds
